{"sequences": {"note": "By UniProt entry, the sequences of proteins in these tests, tags left out.", "UniProt Q14191, whole entry, looked up": "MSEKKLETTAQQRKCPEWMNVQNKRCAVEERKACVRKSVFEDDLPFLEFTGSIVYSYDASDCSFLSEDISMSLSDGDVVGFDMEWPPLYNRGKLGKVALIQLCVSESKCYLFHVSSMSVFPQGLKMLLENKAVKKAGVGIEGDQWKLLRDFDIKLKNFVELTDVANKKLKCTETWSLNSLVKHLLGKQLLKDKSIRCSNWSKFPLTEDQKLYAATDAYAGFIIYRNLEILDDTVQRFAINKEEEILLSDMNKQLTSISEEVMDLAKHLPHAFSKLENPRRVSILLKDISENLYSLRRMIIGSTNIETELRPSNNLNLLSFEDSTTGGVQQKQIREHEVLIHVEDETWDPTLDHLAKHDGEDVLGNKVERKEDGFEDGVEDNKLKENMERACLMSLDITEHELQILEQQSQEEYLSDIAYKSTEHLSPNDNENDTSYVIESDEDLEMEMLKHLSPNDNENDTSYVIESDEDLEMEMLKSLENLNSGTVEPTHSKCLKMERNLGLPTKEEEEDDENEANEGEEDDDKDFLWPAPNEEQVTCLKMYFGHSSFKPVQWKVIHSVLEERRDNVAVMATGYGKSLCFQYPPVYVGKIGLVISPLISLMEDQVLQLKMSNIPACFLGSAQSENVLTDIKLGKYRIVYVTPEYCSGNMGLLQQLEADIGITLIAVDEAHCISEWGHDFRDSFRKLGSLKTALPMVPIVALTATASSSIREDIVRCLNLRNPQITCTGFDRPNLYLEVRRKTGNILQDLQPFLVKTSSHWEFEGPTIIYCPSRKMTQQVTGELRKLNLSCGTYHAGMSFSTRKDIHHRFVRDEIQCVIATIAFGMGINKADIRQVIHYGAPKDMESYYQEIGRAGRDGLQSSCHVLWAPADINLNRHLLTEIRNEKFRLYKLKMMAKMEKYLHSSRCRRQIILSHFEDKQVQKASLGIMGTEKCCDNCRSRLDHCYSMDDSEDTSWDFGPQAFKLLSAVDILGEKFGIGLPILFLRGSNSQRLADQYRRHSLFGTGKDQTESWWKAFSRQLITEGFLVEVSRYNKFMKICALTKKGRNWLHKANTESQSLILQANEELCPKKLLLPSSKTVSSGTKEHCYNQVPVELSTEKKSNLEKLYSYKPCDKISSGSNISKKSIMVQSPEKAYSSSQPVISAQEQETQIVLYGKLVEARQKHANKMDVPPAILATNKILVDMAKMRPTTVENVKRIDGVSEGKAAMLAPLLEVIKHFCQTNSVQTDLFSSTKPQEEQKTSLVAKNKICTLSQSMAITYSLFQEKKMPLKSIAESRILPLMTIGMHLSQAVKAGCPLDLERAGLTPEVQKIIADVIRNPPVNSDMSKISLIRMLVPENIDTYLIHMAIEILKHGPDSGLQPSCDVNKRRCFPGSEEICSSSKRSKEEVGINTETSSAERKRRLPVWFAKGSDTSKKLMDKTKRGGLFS"}, "source": "PubChem BioAssay AID651768", "about": "(National Center for Advancing Translational Sciences (NCATS), 2012)", "note": "About 1,700 (0.47%) of roughly 360,000 compounds were called active. Inconclusive results, whose numbers are uncertain, are shown with a selection of clear calls. The call rests on the fitted dose curve; in most records, active means well fitted inhibition curve with a large enough effect; inconclusive means small, poorly fitted or top-dose-only effect; inactive means no such curve, though single readings can be large or run the other way. Potencies beside an inconclusive call are fits to weak or partial responses and may not hold up. On the % scale 0 is the no-effect control and ±100 the full control effect; potency means the concentration at half of the fitted maximal effect."}
{"biological_target": "Bifunctional 3'-5' exonuclease/ATP-dependent helicase WRN (Homo sapiens) (UniProt Q14191)", "experiment": "qHTS for Inhibitors of WRN Helicase; further: nearly all actives have a fitted effect of over 55% in size", "conditions": "WRN helicase unwinding, fluorescent forked duplex, kinetic; activity change, negative = inhibition: at 114 µM (top of the series) unless noted", "method_in_brief": "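Kinetic red-fluorescence monitoring (525/598 nm) tracks WRN helicase activity after 100 nM fluorophore-quencher forked duplex and 2 mM ATP are added to 20 nM enzyme pretreated 15 min at room temperature with compound.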"}
{"smiles": "Cc1ccc(-c2cc(C(=O)Nc3ccccn3)c3ccccc3n2)o1", "Potency": "inconclusive: 18.9 µM [inhibitor, partial curve]"}
{"smiles": "O=C(NCc1ccco1)C(c1ccc(F)cc1)N(CC1CCCO1)C(=O)Cn1nnc2ccccc21", "note": "(stereo not given)", "activity change, negative = inhibition": "inactive: 0.932%"}
{"smiles": "CC(=O)c1cccc(Nc2nc3ccccc3n3cnnc23)c1", "Potency": "inconclusive: 50.1 µM [inhibitor, partial curve]"}
{"smiles": "C=CCN1C(=O)/C(=C\\C=C2\\N(C)c3ccccc3C2(C)C)SC1=S", "Potency": "inconclusive: 2.82 µM [inhibitor, full curve, poor fit]"}
{"smiles": "COc1ccc(CCNC(=O)CSc2ccc(-c3ccncc3)nn2)cc1", "activity change, negative = inhibition": "inactive: -3.74%"}
{"smiles": "Cc1cc(-c2cc(-c3ccc(Cl)cc3)nc(N)c2C#N)co1", "activity change, negative = inhibition": "inconclusive: -48.5% [inhibitor] [at 57.1 µM]"}
{"smiles": "Fc1ccc(CSc2ccc(-c3ccco3)nn2)cc1", "Potency": "inconclusive: 10 µM [inhibitor, partial curve]"}
{"smiles": "Cc1ccc2occ(/C=N/NC(=O)c3ccccc3C)c(=O)c2c1", "Potency": "inconclusive: 44.7 µM [inhibitor, partial curve]"}
{"smiles": "CC(CC(=O)OCC(=O)Nc1ccc2[nH]c(=O)[nH]c2c1)c1ccccc1", "note": "(stereo not given)", "Potency": "inconclusive: 35.5 µM [inhibitor, partial curve]"}
{"smiles": "N#CCSc1nnc(SCC#N)s1", "Potency": "inconclusive: 50.1 µM [inhibitor, partial curve]"}
{"smiles": "CCOc1ccc(S(=O)(=O)NCCC(=O)N2CCN(c3ccc(OC)cc3)CC2)cc1", "activity change, negative = inhibition": "inactive: -22.6%"}
{"smiles": "Cc1sc2ncn(CC(=O)NCC3COc4ccccc4O3)c(=O)c2c1S(=O)(=O)N1CCCCC1", "note": "(stereo not given)", "Potency": "inconclusive: 63.1 µM [inhibitor, single point]"}
{"smiles": "CCOc1ccccc1NC(=O)COC(=O)c1c[nH]c2ccccc12", "Potency": "inconclusive: 56.2 µM [inhibitor, partial curve]"}
{"smiles": "COc1ccc(N2C(=O)/C(=C/c3cccs3)NC2=S)cc1", "Potency": "inconclusive: 100 µM [inhibitor, partial curve]"}
{"smiles": "CCOC(=O)Cc1[nH]nc2c1C(C1C=CCCC1)C(C#N)=C(N)O2", "note": "(stereo not given)", "activity change, negative = inhibition": "inactive: -18.2%"}
{"smiles": "CNC(=O)C(C)Sc1ccc(S(=O)(=O)N2CCOCC2)cn1", "note": "(stereo not given)", "Potency": "inconclusive: 22.4 µM [inhibitor, single point]"}
{"smiles": "c1ccc(-c2noc(CN3CCN(c4cnccn4)CC3)n2)cc1", "activity change, negative = inhibition": "inactive: 1.19%"}
{"smiles": "CCCCC(=O)NC(=S)Nc1cccc(C(=O)O)c1", "activity change, negative = inhibition": "inactive: -3.44%"}
{"smiles": "Cc1[nH]nc2c1C(c1cccs1)C(C#N)=C(N)O2", "note": "(stereo not given)", "Potency": "inconclusive: 28.2 µM [inhibitor, single point]"}
{"smiles": "CCc1cc(C(=O)Cc2cnn(-c3ccccc3)c2)c(O)cc1O", "activity change, negative = inhibition": "inactive: -14.2%"}
{"smiles": "Cc1oc2cc(O)ccc2c(=O)c1-c1nncn1-c1ccccc1", "Potency": "inconclusive: 35.5 µM [inhibitor, partial curve, poor fit]"}
{"smiles": "Cc1ccc(NNC(=O)c2cc(C(C)(C)C)nn2Cc2ccccc2)cc1", "Potency": "inconclusive: 3.55 µM [inhibitor, full curve, poor fit]"}
{"smiles": "Cc1c(N=O)c(-c2ccccc2)n(O)[n+]1[O-]", "activity change, negative = inhibition": "inactive: -2.64%"}
{"smiles": "Cc1cccc(C)c1-n1c(C)cc(/C=N/NC(=O)c2ccncc2)c1C", "Potency": "inconclusive: 39.8 µM [inhibitor, single point]"}
{"smiles": "Cc1ccc(-c2[nH]c(=O)n3ccncc23)s1", "Potency": "inconclusive: 56.2 µM [inhibitor, partial curve, poor fit]"}
{"smiles": "c1ccc2nc(-c3nc4ccccc4o3)ccc2c1", "Potency": "inconclusive: 79.4 µM [inhibitor, single point]"}
{"smiles": "NC1=NC(=O)/C(=C/c2ccccc2OS(=O)(=O)c2ccc3ccccc3c2)S1", "activity change, negative = inhibition": "inactive: -0.914%"}
{"smiles": "CCOC(=O)c1ccc2c(c1)n(CC)c(/C=C/N(C)c1ccccc1)[n+]2CC", "activity change, negative = inhibition": "inactive: 8.71%"}
{"smiles": "COC(=O)CN1C(=O)S/C(=C/c2ccc(N3CCCCC3)o2)C1=O", "Potency": "inconclusive: 89.1 µM [inhibitor, partial curve, poor fit]"}
{"smiles": "CC(=O)C1=C(C)NC(SCC(N)=O)=C(C#N)C1CC(C)C", "note": "(stereo not given)", "Potency": "inconclusive: 79.4 µM [inhibitor, partial curve]"}
{"smiles": "O=C1NN(c2ccc(Cl)c(Cl)c2)C(=O)/C1=C/c1ccc(-c2ccccc2C(=O)O)o1", "Potency": "active: 31.6 µM"}
{"smiles": "Cc1cc(C)n2nc3nc(N4CCCCC4)nc(-c4ccco4)c3c2n1", "activity change, negative = inhibition": "inconclusive: -43.8% [inhibitor] [at 57.1 µM]"}
{"smiles": "CC(=O)c1cccc(N2C(=NC(=O)CCc3ccccc3)SC3CS(=O)(=O)CC32)c1", "note": "(stereo not given)", "activity change, negative = inhibition": "inactive: 7.89%"}
{"smiles": "CCOC(=O)C1=C(C)N=c2sc(=Cc3ccc(OCC(=O)O)cc3)c(=O)n2C1c1ccc(SC)cc1", "note": "(stereo not given)", "Potency": "inconclusive: 25.1 µM [inhibitor, partial curve]"}
{"smiles": "COc1ccc2oc(C(=O)OCC(=O)N3CCCCC3C)c(C)c2c1", "note": "(stereo not given)", "Potency": "inconclusive: 14.1 µM [inhibitor, single point]"}
{"smiles": "Cc1ccc(C(=O)O)cc1-c1ccc(/C=C2\\SC(=O)N(CC(=O)Nc3ccccc3)C2=O)o1", "Potency": "inconclusive: 39.8 µM [inhibitor, single point]"}
{"smiles": "CCCn1nc(C(=O)NNC(=O)CSC(C)C(=O)Nc2cc(C)on2)c2ccccc2c1=O", "note": "(stereo not given)", "Potency": "inconclusive: 44.7 µM [inhibitor, partial curve]"}
{"smiles": "N#CC(C#N)=C1SC(=Nc2ccccc2)C(=Nc2ccccc2)N1c1ccccc1", "Potency": "inconclusive: 22.4 µM [inhibitor, single point]"}
{"smiles": "COc1ccccc1NC(=O)CSC(N)=O", "Potency": "inconclusive: 44.7 µM [inhibitor, partial curve]"}
{"smiles": "Cc1cc(Br)ccc1SCC(=O)OCC(=O)NCc1ccco1", "Potency": "inconclusive: 79.4 µM [inhibitor, partial curve]"}
{"smiles": "CC(C)(C)n1nnnc1C(c1ccc(F)cc1)N(Cc1ccc(F)cc1)Cc1ccco1", "note": "(stereo not given)", "Potency": "inconclusive: 39.8 µM [inhibitor, single point]"}
{"smiles": "CC(=O)Nc1cccc(NC(=O)Nc2cccc3ccccc23)c1", "activity change, negative = inhibition": "inactive: -2.41%"}
{"smiles": "CCCCNC(=O)OCC(CC)NC(=O)OCC(C)C", "note": "(stereo not given)", "activity change, negative = inhibition": "inactive: 4.41%"}
{"smiles": "O=[N+]([O-])c1ccc2nc(-c3cccnc3)[nH]c2c1", "Potency": "inconclusive: 8.91 µM [inhibitor, full curve]"}
{"smiles": "O=C(N=C1SCC(=O)N1c1ccccc1Cl)c1ccccc1", "Potency": "inconclusive: 39.8 µM [inhibitor, partial curve]"}
